According to patent US20250249056A1, “CANCER THERAPIES COMPRISING A NUCLEAR EXPORT INHIBITOR AND AN ONCOLYTIC VIRUS” (priority 2022, published 2025):
Where two headings read alike, the source gives them in different places. The source gives many values for each of these; only a part stands here.

Test system: Colo205 cells
Assay type: cell-based, human

SMILES: O=C(/C=C\n1cnc(-c2cc(C(F)(F)F)cc(C(F)(F)F)c2)n1)NNc1cnccn1 [selinexor]
- Differential protein expression, selinexor-treated nucleus vs control nucleus (protein A2ML1 (A8K2U0)): 100
- Differential protein expression, selinexor-treated nucleus vs control nucleus (protein ABCC4 (O15439)): 0.359
- Differential protein expression, selinexor-treated nucleus vs control nucleus (protein ABCD1 (P33897)): 0.46
- Differential protein expression, selinexor-treated nucleus vs control nucleus (protein ABCD3 (P28288)): 0.392
- Differential protein expression, selinexor-treated nucleus vs control nucleus (protein ADAM8 (P78325)): 0.319
- Differential protein expression, selinexor-treated nucleus vs control nucleus (protein AEBP2 (Q6ZN18)): 0.193
- Differential protein expression, selinexor-treated nucleus vs control nucleus (protein AGAP1 (Q9UPQ3)): 100
- Differential protein expression, selinexor-treated nucleus vs control nucleus (protein AKR1C4 (P17516)): 0.01
- Differential protein expression, selinexor-treated nucleus vs control nucleus (protein ALG6 (Q9Y672)): 0.442
- Differential protein expression, selinexor-treated nucleus vs control nucleus (protein APOD (P05090)): 0.01
- Differential protein expression, selinexor-treated nucleus vs control nucleus (protein APOO (Q9BUR5)): 0.427
- Differential protein expression, selinexor-treated nucleus vs control nucleus (protein APOOL (Q6UXV4)): 0.382
- Differential protein expression, selinexor-treated nucleus vs control nucleus (protein ASF1B (Q9NVP2)): 0.353
- Differential protein expression, selinexor-treated nucleus vs control nucleus (protein ASNS (P08243)): 0.391
- Differential protein expression, selinexor-treated nucleus vs control nucleus (protein ASPRV1 (Q53RT3)): 0.405
- Differential protein expression, selinexor-treated nucleus vs control nucleus (protein ATAD3A (Q9NVI7)): 0.426
- Differential protein expression, selinexor-treated nucleus vs control nucleus (protein ATAD3B (Q5T9A4)): 0.385
- Differential protein expression, selinexor-treated nucleus vs control nucleus (protein ATP6V0A2 (Q9Y487)): 0.375
- Differential protein expression, selinexor-treated nucleus vs control nucleus (protein AURKA (O14965)): 0.374
- Differential protein expression, selinexor-treated nucleus vs control nucleus (protein BRCA1 (P38398)): 0.396
- Differential protein expression, selinexor-treated nucleus vs control nucleus (protein BYSL (Q13895)): 3.24
- Differential protein expression, selinexor-treated nucleus vs control nucleus (protein C11orf98 (E9PRG8)): 3.204
- Differential protein expression, selinexor-treated nucleus vs control nucleus (protein CA12 (O43570)): 0.172
- Differential protein expression, selinexor-treated nucleus vs control nucleus (protein CCNB1 (P14635)): 0.251
- Differential protein expression, selinexor-treated nucleus vs control nucleus (protein CCNB2 (O95067)): 0.324
- Differential protein expression, selinexor-treated nucleus vs control nucleus (protein CDC5 (Q96FF9)): 0.444
- Differential protein expression, selinexor-treated nucleus vs control nucleus (protein CDK1 (P06493)): 0.47
- Differential protein expression, selinexor-treated nucleus vs control nucleus (protein CENPF (P49454)): 0.413
- Differential protein expression, selinexor-treated nucleus vs control nucleus (protein CHST11 (Q9NPF2)): 0.412
- Differential protein expression, selinexor-treated nucleus vs control nucleus (protein CHTF8 (P0CG13)): 0.389
- Differential protein expression, selinexor-treated nucleus vs control nucleus (protein CIP2A (Q8TCG1)): 0.192
- Differential protein expression, selinexor-treated nucleus vs control nucleus (protein CIPAS39 (Q9H9C1)): 100
- Differential protein expression, selinexor-treated nucleus vs control nucleus (protein CKS1B (P61024)): 0.373
- Differential protein expression, selinexor-treated nucleus vs control nucleus (protein CLDN4 (O14493)): 0.01
- Differential protein expression, selinexor-treated nucleus vs control nucleus (protein CLK1 (P49759)): 100
- Differential protein expression, selinexor-treated nucleus vs control nucleus (protein CLPP (Q16740)): 0.407
- Differential protein expression, selinexor-treated nucleus vs control nucleus (protein CNL3L (Q9NVN8)): 3.05
- Differential protein expression, selinexor-treated nucleus vs control nucleus (protein COMTD1 (Q86VU5)): 0.397
- Differential protein expression, selinexor-treated nucleus vs control nucleus (protein COX7A2L (O14548)): 0.434
- Differential protein expression, selinexor-treated nucleus vs control nucleus (protein DCP1A (Q9NPI6)): 0.259
- Differential protein expression, selinexor-treated nucleus vs control nucleus (protein DDAH2 (O95865)): 100
- Differential protein expression, selinexor-treated nucleus vs control nucleus (protein DHRS1 (Q96LJ7)): 0.01
- Differential protein expression, selinexor-treated nucleus vs control nucleus (protein DIAPH3 (Q9NSV4)): 0.27
- Differential protein expression, selinexor-treated nucleus vs control nucleus (protein DLAT (P10515)): 0.306
- Differential protein expression, selinexor-treated nucleus vs control nucleus (protein DMKN (Q6EOU4)): 7.406
- Differential protein expression, selinexor-treated nucleus vs control nucleus (protein DOLPP1 (Q86YN1)): 0.459
- Differential protein expression, selinexor-treated nucleus vs control nucleus (protein DPP8 (Q6V1X1)): 0.01
- Differential protein expression, selinexor-treated nucleus vs control nucleus (protein DVL3 (Q92997)): 7.167
- Differential protein expression, selinexor-treated nucleus vs control nucleus (protein ECSIT (Q9BQ95)): 0.457
- Differential protein expression, selinexor-treated nucleus vs control nucleus (protein EDC3 (Q96F86)): 0.414
- Differential protein expression, selinexor-treated nucleus vs control nucleus (protein EDC4 (Q6P2E9)): 0.263
- Differential protein expression, selinexor-treated nucleus vs control nucleus (protein ERG28 (Q9UKR5)): 0.409
- Differential protein expression, selinexor-treated nucleus vs control nucleus (protein ERLIN1 (O75477)): 0.433
- Differential protein expression, selinexor-treated nucleus vs control nucleus (protein FAM111B (Q6SJ93)): 0.388
- Differential protein expression, selinexor-treated nucleus vs control nucleus (protein FANCD2 (Q9BXW9)): 0.354
- Differential protein expression, selinexor-treated nucleus vs control nucleus (protein FANCI (Q9NVI1)): 0.422
- Differential protein expression, selinexor-treated nucleus vs control nucleus (protein FAR1 (Q8WVX9)): 0.45
- Differential protein expression, selinexor-treated nucleus vs control nucleus (protein FDFT1 (P37268)): 0.39
- Differential protein expression, selinexor-treated nucleus vs control nucleus (protein FKBP15 (Q5T1M5)): 0.445
- Differential protein expression, selinexor-treated nucleus vs control nucleus (protein FLG (P20930)): 0.183
- Differential protein expression, selinexor-treated nucleus vs control nucleus (protein GABARAPL2 (P60520)): 2.828
- Differential protein expression, selinexor-treated nucleus vs control nucleus (protein GALNT1 (Q10472)): 100
- Differential protein expression, selinexor-treated nucleus vs control nucleus (protein GLUL (P15104)): 0.258
- Differential protein expression, selinexor-treated nucleus vs control nucleus (protein GOLGA3 (Q08378)): 0.341
- Differential protein expression, selinexor-treated nucleus vs control nucleus (protein GPRC5A (Q8NFJ5)): 0.441
- Differential protein expression, selinexor-treated nucleus vs control nucleus (protein GTF2IRD1 (Q9UHL9)): 0.312
- Differential protein expression, selinexor-treated nucleus vs control nucleus (protein H2B21 (Q16778)): 3.428
- Differential protein expression, selinexor-treated nucleus vs control nucleus (protein H2BC1 (Q96A08)): 2.811
- Differential protein expression, selinexor-treated nucleus vs control nucleus (protein H2BC3 (P33778)): 3.428
- Differential protein expression, selinexor-treated nucleus vs control nucleus (protein H2BC4 (P62807)): 2.923
- Differential protein expression, selinexor-treated nucleus vs control nucleus (protein H2BC5 (P58876)): 2.923
- Differential protein expression, selinexor-treated nucleus vs control nucleus (protein H2BC11 (P06899)): 3.428
- Differential protein expression, selinexor-treated nucleus vs control nucleus (protein H2BC12 (O60814)): 2.923
- Differential protein expression, selinexor-treated nucleus vs control nucleus (protein H2BC12L (P57053)): 2.944
- Differential protein expression, selinexor-treated nucleus vs control nucleus (protein H2BC13 (Q99880)): 2.923
- Differential protein expression, selinexor-treated nucleus vs control nucleus (protein H2BC14 (Q99879)): 2.923
- Differential protein expression, selinexor-treated nucleus vs control nucleus (protein H2BC15 (Q99877)): 2.923
- Differential protein expression, selinexor-treated nucleus vs control nucleus (protein H2BC18 (Q5QNW6)): 2.923
- Differential protein expression, selinexor-treated nucleus vs control nucleus (protein H2BC19P (Q6DRA6)): 3.428
- Differential protein expression, selinexor-treated nucleus vs control nucleus (protein H2BC20P (Q6DN03)): 3.428
- Differential protein expression, selinexor-treated nucleus vs control nucleus (protein H2BC26 (Q8N257)): 3.428
- Differential protein expression, selinexor-treated nucleus vs control nucleus (protein H2BV9 (Q93079)): 2.923
- Differential protein expression, selinexor-treated nucleus vs control nucleus (protein H2BV17 (P23527)): 3.428
- Differential protein expression, selinexor-treated nucleus vs control nucleus (protein H3-4 (Q16695)): 3.385
- Differential protein expression, selinexor-treated nucleus vs control nucleus (protein H3-5 (Q6NXT2)): 3.559
- Differential protein expression, selinexor-treated nucleus vs control nucleus (protein H3-7 (Q5TEC6)): 3.559
- Differential protein expression, selinexor-treated nucleus vs control nucleus (protein H3C1 (P68431)): 3.511
- Differential protein expression, selinexor-treated nucleus vs control nucleus (protein H3C15 (Q71DI3)): 4.057
- Differential protein expression, selinexor-treated nucleus vs control nucleus (protein H4C1 (P62805)): 3.248
- Differential protein expression, selinexor-treated nucleus vs control nucleus (protein HERPUD1 (Q15011)): 0.01
- Differential protein expression, selinexor-treated nucleus vs control nucleus (protein HK2 (P52789)): 0.323
- Differential protein expression, selinexor-treated nucleus vs control nucleus (protein HK3 (P52790)): 0.38
- Differential protein expression, selinexor-treated nucleus vs control nucleus (protein HSPG2 (P98160)): 0.453
- Differential protein expression, selinexor-treated nucleus vs control nucleus (protein INPP4B (O15327)): 100
- Differential protein expression, selinexor-treated nucleus vs control nucleus (protein IQGAP3 (Q86VI3)): 0.268
- Differential protein expression, selinexor-treated nucleus vs control nucleus (protein JMJD7 (P0C870)): 4.28
- Differential protein expression, selinexor-treated nucleus vs control nucleus (protein KIF11 (P52732)): 0.467
- Differential protein expression, selinexor-treated nucleus vs control nucleus (protein KIF20A (O95235)): 0.4
- Differential protein expression, selinexor-treated nucleus vs control nucleus (protein KIF22 (Q14807)): 0.269
- Differential protein expression, selinexor-treated nucleus vs control nucleus (protein KNL1 (Q8NG31)): 0.466
- Differential protein expression, selinexor-treated nucleus vs control nucleus (protein KRT9 (P35527)): 3.328
- Differential protein expression, selinexor-treated nucleus vs control nucleus (protein KRT16 (P08779)): 3.311
- Differential protein expression, selinexor-treated nucleus vs control nucleus (protein KRT71 (Q3SY84)): 4.215
- Differential protein expression, selinexor-treated nucleus vs control nucleus (protein KRT73 (Q86Y46)): 4.215
- Differential protein expression, selinexor-treated nucleus vs control nucleus (protein KRT74 (Q7RTS7)): 4.215
- Differential protein expression, selinexor-treated nucleus vs control nucleus (protein KRT77 (Q7Z794)): 3.514
- Differential protein expression, selinexor-treated nucleus vs control nucleus (protein LAMTOR1 (Q6IAA8)): 0.46
- Differential protein expression, selinexor-treated nucleus vs control nucleus (protein LAMTOR2 (Q9Y2Q5)): 0.417
- Differential protein expression, selinexor-treated nucleus vs control nucleus (protein LARP1B (Q659C4)): 0.472
- Differential protein expression, selinexor-treated nucleus vs control nucleus (protein LCN2 (P80188)): 100
- Differential protein expression, selinexor-treated nucleus vs control nucleus (protein LEMD2 (Q8NC56)): 0.466
- Differential protein expression, selinexor-treated nucleus vs control nucleus (protein LGALS3BP (Q08380)): 0.457
- Differential protein expression, selinexor-treated nucleus vs control nucleus (protein LONP2 (Q86WA8)): 0.28
- Differential protein expression, selinexor-treated nucleus vs control nucleus (protein LSM14B (Q9BX40)): 0.341
- Differential protein expression, selinexor-treated nucleus vs control nucleus (protein LTV1 (Q96GA3)): 8.511
- Differential protein expression, selinexor-treated nucleus vs control nucleus (protein LY75 (O60449)): 100
- Differential protein expression, selinexor-treated nucleus vs control nucleus (protein MACC1 (Q6ZN28)): 0.333
- Differential protein expression, selinexor-treated nucleus vs control nucleus (protein MACROH2A1 (O75367)): 4.8
- Differential protein expression, selinexor-treated nucleus vs control nucleus (protein MACROH2A2 (Q9P0M6)): 5.955
- Differential protein expression, selinexor-treated nucleus vs control nucleus (protein MAD2L1 (Q13257)): 0.433
- Differential protein expression, selinexor-treated nucleus vs control nucleus (protein MCFD2 (Q8NI22)): 100
- Differential protein expression, selinexor-treated nucleus vs control nucleus (protein MCU (Q8NE86)): 0.465
- Differential protein expression, selinexor-treated nucleus vs control nucleus (protein MICOS10 (Q5TGZ0)): 0.437
- Differential protein expression, selinexor-treated nucleus vs control nucleus (protein MISP3 (Q96FF7)): 0.445
- Differential protein expression, selinexor-treated nucleus vs control nucleus (protein MMS22L (Q6ZRQ5)): 0.395
- Differential protein expression, selinexor-treated nucleus vs control nucleus (protein MRTFB (Q9ULH7)): 0.443
- Differential protein expression, selinexor-treated nucleus vs control nucleus (protein MT-ND1 (P03886)): 0.385
- Differential protein expression, selinexor-treated nucleus vs control nucleus (protein MT-ND2 (P03891)): 0.403
